The values that follow come from the supplement of paper PMC12595434, “Development of retinoid nuclear receptor pathway antagonists through targeting aldehyde dehydrogenase 1A3” (iScience, 2025).

By UniProt entry, the sequences of proteins in these tests, tags left out. Where a name states a change or a piece, a line headed by the entry shows the natural chain unless it says otherwise.
UniProt Q9BW60: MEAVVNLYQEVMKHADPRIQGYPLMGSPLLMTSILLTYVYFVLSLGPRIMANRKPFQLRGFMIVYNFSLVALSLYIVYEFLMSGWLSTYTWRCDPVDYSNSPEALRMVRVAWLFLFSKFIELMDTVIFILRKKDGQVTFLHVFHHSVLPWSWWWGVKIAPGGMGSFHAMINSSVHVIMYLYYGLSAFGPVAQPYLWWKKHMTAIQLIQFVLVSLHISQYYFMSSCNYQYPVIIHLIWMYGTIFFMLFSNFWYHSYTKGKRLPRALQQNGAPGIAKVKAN
UniProt Q99549: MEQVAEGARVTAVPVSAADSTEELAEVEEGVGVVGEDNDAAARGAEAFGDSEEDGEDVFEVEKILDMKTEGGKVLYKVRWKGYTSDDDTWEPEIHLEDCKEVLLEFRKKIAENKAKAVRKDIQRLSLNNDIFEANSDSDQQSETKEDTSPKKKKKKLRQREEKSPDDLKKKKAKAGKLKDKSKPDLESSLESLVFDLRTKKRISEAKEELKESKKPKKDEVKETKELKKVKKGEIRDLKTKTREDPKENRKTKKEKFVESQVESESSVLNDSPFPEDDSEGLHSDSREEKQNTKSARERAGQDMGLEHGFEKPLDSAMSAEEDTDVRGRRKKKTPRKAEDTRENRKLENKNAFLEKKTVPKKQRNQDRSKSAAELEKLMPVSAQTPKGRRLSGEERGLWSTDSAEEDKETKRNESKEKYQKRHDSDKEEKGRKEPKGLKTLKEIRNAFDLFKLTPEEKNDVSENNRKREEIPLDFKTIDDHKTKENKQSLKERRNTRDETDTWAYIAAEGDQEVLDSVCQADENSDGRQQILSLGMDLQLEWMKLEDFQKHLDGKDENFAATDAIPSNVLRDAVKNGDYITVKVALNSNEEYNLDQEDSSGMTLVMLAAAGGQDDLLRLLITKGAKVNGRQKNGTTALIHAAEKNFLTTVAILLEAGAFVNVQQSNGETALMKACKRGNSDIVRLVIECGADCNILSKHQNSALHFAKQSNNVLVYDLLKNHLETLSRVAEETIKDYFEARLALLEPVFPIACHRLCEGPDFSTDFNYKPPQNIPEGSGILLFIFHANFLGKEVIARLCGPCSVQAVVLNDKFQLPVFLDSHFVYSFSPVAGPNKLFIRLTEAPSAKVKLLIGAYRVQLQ
UniProt Q9BVR0: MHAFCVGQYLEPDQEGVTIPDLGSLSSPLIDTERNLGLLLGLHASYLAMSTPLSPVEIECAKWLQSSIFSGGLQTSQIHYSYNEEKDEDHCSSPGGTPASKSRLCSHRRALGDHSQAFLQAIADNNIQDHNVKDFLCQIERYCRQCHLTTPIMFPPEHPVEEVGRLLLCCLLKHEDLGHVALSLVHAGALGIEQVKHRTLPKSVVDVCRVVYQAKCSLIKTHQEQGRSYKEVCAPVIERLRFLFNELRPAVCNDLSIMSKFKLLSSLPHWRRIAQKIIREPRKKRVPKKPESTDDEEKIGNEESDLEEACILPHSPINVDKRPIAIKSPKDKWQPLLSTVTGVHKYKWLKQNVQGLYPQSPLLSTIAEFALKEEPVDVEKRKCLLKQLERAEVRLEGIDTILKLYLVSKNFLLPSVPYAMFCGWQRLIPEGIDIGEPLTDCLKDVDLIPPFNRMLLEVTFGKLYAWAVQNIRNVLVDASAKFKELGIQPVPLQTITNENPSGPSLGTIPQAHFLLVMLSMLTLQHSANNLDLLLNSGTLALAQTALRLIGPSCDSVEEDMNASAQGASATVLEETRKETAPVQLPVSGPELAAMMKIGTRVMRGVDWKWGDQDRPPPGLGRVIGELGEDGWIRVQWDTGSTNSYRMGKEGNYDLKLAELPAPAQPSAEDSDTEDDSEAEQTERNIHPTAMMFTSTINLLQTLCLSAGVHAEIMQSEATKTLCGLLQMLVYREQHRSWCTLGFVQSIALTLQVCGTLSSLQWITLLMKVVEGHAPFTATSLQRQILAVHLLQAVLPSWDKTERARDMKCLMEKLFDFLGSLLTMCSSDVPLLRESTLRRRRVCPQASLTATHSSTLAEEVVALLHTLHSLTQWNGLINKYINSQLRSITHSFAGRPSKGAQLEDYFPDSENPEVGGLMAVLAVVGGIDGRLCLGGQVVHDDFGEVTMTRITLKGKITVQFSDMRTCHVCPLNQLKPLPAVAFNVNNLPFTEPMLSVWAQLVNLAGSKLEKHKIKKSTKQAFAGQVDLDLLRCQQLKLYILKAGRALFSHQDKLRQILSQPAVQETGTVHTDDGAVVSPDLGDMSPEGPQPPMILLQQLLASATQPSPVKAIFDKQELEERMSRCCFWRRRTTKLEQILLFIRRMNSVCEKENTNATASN
UniProt Q99685, whole entry: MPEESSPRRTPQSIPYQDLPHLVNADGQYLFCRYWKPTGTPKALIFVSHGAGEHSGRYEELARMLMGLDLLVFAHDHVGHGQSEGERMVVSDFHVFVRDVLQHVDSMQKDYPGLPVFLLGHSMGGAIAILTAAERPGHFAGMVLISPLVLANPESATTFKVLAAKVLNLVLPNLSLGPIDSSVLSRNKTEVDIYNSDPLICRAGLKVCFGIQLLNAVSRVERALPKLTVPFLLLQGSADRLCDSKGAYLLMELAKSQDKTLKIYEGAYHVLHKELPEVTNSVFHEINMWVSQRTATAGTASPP
UniProt Q9BS26: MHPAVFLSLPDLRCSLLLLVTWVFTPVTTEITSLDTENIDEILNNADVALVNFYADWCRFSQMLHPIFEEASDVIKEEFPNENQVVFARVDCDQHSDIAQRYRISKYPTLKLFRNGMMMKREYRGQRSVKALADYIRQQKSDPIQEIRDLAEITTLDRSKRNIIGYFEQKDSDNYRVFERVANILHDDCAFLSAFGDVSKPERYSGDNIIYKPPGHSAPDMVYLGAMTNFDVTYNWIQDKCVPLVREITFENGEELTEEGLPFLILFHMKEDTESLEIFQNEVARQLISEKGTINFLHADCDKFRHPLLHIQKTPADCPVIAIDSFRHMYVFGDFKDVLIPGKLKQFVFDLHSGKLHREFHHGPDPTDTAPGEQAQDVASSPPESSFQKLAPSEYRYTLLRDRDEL
UniProt Q9BUP0: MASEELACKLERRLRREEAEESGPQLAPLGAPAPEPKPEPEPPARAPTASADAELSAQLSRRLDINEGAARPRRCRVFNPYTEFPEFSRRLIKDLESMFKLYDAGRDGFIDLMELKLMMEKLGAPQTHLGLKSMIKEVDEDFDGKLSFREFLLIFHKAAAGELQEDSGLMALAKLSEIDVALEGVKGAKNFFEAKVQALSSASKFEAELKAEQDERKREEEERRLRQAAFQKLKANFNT
UniProt Q99627: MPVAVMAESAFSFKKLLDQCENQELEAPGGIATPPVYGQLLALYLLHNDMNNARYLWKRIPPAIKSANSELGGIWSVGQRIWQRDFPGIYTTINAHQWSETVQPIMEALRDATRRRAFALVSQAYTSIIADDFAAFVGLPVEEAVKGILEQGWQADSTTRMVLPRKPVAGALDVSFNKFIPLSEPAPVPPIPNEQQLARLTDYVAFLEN
UniProt Q99576: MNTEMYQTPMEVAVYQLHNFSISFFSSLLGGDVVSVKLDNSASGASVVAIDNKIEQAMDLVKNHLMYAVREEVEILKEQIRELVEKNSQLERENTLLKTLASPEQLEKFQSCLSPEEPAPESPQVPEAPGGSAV
UniProt Q9BTF0: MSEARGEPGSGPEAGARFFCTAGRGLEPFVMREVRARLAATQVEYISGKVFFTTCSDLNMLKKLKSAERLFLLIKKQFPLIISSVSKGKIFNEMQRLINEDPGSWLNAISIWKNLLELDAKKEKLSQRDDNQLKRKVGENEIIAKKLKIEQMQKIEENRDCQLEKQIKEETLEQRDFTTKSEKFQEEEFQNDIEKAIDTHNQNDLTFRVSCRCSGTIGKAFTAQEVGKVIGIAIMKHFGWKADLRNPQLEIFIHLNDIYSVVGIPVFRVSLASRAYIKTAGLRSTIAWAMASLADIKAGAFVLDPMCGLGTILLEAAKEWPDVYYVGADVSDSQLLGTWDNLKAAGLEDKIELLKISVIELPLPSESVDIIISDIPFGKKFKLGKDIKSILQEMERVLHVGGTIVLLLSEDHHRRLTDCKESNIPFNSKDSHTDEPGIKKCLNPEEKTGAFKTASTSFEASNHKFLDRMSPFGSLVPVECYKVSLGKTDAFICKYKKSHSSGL
UniProt Q9BRX9: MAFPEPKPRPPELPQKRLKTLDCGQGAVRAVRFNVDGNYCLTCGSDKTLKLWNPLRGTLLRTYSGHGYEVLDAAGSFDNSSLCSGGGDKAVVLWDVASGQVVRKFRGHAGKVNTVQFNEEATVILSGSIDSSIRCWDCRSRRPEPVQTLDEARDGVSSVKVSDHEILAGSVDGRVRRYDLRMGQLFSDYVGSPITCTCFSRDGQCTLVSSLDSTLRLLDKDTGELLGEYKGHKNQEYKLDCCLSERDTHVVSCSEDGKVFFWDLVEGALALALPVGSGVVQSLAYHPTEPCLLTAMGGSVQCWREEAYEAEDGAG

The list shows a part of the results. Single values of this set are uncertain.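 Many melting curves are irregular; where none melted, Tm was taken as 64 °C.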

Compound in the test: CCc1cnccc1C(=O)Nc1cc2c(cc1F)NC(=O)CC2
The experiment in a line: melting temperature shift (DMSO Tm minus MBE1-treated Tm) in cellular thermal proteome profiling; higher = less thermal stabilization by MBE1 (negative = stabilized by MBE1). As to conditions: A375; MBE1 concentration: 1 uM.
Consider ELOVL1 (UniProt Q9BW60), for which the melting temperature shift came to 0.385 °C.

UniProt Q99549: the melting temperature shift was -3.93 °C.

For the target UniProt Q9BVR0, the melting temperature shift was found to be 0.503 °C.

In the case of MGLL (UniProt Q99685), the melting temperature shift turned out to be 0 °C.

For ERP44 (UniProt Q9BS26), the melting temperature shift is -1.6 °C.

Regarding UniProt Q9BUP0, the melting temperature shift is -0.986 °C.

For COPS8 (UniProt Q99627), the melting temperature shift was -0.0134 °C.

Take UniProt Q99576: the melting temperature shift is -0.445 °C.

As to THUMPD2 (UniProt Q9BTF0), the melting temperature shift is 1.62 °C.

Turning to UniProt Q9BRX9, the melting temperature shift was -0.171 °C.
